Measurements: publication PMC7862700
The entries are a selection whose mix differs from that of the whole data set. For some of these results: At the low end of the ranking the order means little. This is one part of the list. For some of these results: The exact form of the protein is not confirmed.

Protein sequences, listed by entry. Tags and fused reporters are not part of them. Lines headed by an entry give the natural chain unless they say otherwise; changes in a name come on top.
UniProt Q00613: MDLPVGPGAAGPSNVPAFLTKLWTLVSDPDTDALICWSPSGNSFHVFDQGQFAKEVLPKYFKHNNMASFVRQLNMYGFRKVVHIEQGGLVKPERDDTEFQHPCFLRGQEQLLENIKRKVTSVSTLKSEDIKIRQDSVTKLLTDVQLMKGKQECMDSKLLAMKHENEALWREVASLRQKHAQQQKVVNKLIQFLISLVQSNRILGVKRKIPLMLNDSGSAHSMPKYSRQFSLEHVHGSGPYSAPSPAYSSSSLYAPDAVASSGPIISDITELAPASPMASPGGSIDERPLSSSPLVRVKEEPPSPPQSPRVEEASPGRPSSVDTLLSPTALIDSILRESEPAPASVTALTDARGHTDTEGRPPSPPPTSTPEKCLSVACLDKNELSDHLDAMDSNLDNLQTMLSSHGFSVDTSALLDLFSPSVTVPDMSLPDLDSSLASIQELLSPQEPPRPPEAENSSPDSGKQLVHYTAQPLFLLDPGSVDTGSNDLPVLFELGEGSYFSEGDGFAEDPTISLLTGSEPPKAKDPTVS

What was measured:
HSF1 = HSF1 (UniProt Q00613); assay: DAPPL (digital affinity profiling via proximity ligation, sequencing); conditions: 10 mM Tris-HCl pH 7.5, 50 mM NaCl, 1 mM DTT, 4% glycerol, room temperature, 30 min; GST-TFs on glutathione beads, 16-mer random dsDNA library, 0.1% …; high values mean tight binding; double strand, one strand shown; scale: fold enrichment (6-mer frequency, TF over GST control)
ELF2 = target: T1, ELF2 (UniProt Q15723); assay: as above; conditions: 10 mM Tris-HCl pH 7.5, 50 mM NaCl, 1 mM DTT, 4% glycerol, room temperature, 30 min; GST-TFs on glutathione beads, 16-mer random dsDNA library, 0.1% …; high values mean tight binding; double strand, one strand shown; scale: fold enrichment (6-mer frequency, TF over GST control)
T1 sequence: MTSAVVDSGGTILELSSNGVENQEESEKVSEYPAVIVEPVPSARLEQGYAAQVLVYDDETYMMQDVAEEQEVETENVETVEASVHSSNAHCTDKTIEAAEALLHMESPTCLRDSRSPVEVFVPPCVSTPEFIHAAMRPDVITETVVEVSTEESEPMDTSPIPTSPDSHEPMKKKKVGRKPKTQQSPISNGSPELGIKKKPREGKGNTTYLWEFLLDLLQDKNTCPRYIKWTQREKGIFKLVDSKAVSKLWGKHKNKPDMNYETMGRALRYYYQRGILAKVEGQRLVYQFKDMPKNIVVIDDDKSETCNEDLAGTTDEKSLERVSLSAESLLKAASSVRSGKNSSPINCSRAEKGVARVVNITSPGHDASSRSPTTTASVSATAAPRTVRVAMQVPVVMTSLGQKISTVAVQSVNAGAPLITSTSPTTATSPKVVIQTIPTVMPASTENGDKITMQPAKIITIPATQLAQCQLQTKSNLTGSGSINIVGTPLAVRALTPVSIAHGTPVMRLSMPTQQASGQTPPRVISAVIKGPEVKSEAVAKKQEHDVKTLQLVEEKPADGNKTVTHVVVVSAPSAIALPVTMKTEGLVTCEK

Sequence | binding signal (HSF1) | binding signal (ELF2)
ATAACA | 1.2 | 1.24
CAAGCT | 0.933 | 0.955
CCTGCT | 1.34 | 1.66
CATCCA | 0.969 | 0.951
CTGACG | 0.928 | 1.07
ACCGGT | 0.696 | 0.972
AACAAG | 1.03 | 1.16
ACGTAA | 1.17 | 1.05
GCCACA | 0.729 | 0.911
TGCAAG | 0.94 | 0.999
GATAAC | 0.968 | 0.911
CCACCC | 0.904 | 1.18
AGCTTG | 0.935 | 0.919
GGTATG | 0.762 | 0.943
GGAAGT | 0.691 | 4.79
CCGACA | 1.03 | 1.17
AGTTTA | 0.967 | 0.959
ACTCAC | 1.07 | 1.21
CTACAG | 0.957 | 1.03
ATCGCT | 1.08 | 1.01
GACTCG | 0.914 | 0.854

Sequence | binding signal (HSF1) | binding signal (ELF2)
GCTGGC | 0.943 | 0.959
CTTCCA | 2.18 | 1.49
CAAACA | 0.906 | 1.07
CCTTGT | 0.988 | 1.25
CCAACC | 0.791 | 1.05
GGATAC | 0.667 | 1.03
AGCTTA | 1.94 | 1.13
TGCATC | 0.938 | 1.36
CAAAAG | 0.991 | 0.957
ACCCAC | 0.973 | 1.1
CACCCA | 0.806 | 0.97
CCGAAC | 1.54 | 1.17
GAAGTG | 0.692 | 2.08
CTTAAC | 1.72 | 1.23
TGCAGA | 0.947 | 0.92
CCAAGC | 0.951 | 1.01
CTGCGC | 1.1 | 1.24
ATTATA | 2.05 | 1.29
CACCCG | 0.95 | 1.3
CTGGCG | 0.768 | 0.851

Single entries from the list:
GGATAC | binding signal (HSF1): 0.667
AGCTTA | binding signal (HSF1): 1.94
